Assay: soluble on expression in E. coli; label from the status in PepcDB or PDB records

## ARGPAPRLLRPRLSSRASSARRRRARLPGGCGAPGSAARGPRGAGRRRRGARGSGRGACTMNYQQQLANSAAIRAEIQRFESVHPNIYSIYELLERVEEPVLQNQIREHVIAIEDAFVNSQEWTLSRSVPELKVGIVGNLASGKSALVHRYLTGTYVQEESPEGGRFKKEIVVDGQSYLLLIRDEGGPPEAQFAMWVDAVIFVFSLEDEISFQTVYHYYSRMANYRNTSEIPLVLVGTQDAISSANPRVIDDARARKLSNDLKRCTYYETCATYGLNVERVFQDVAQKIVATRKKQQLSIGPCKSLPNSPSHSSVCSAQVSAVHISQTSNGGGSLSDYSSSVPSTPSISQKELRIDVPPTANTPTPVRKQSKRRSNLFTSRKGSDPDKEKKGLESRADSIGSGRAIPIKQGMLLKRSGKSLNKEWKKKYVTLCDNGVLTYHPSLHDYMQNVHGKEIDLLRTTVKVPGKRPPRATSACAPISSPKTNGLSKDMSSLHISPNSDTGLGDSVCSSPSISSTTSPKLDPPPSPHANRKKHRRKKSTSNFKADGLSGTAEEQEENFEFIIVSLTGQTWHFEATTYEERDAWVQAIESQILASLQSCESSKNKSRLTSQSEAMALQSIRNMRGNSHCVDCETQNPNWASLNLGALMCIECSGIHRNLGTHLSRVRSLDLDDWPIELIKVMSSIGNELANSVWEESSQGRTKPSVDSTREEKERWIRAKYEQKLFLAPLPCTELSLGQHLLRATADEDLRTAILLLAHGSRDEVNETCGEGDGRTALHLACRKGNVVLAQLLIWYGVDVTARDAHGNTALAYARQASSQECIDVLLQYGCPDERFVLMATPNLSRRNNNRNNSSGRVPTII
  soluble on expression in E. coli: soluble

## FVNIGERCNVAGSRKFLRLVNEKKYDEALSIARQQVEDGALVIDVNMDDGLLDARTEMTTFLNLIMSEPEIARVPVMIDSSKWEVIEAGLKCLQGKSIVNSISLKEGEEVFLEHARIIKQYGAATVVMAFDEKGQADTAARKIEVCERAYRLLVDKVGFNPHDIIFDPNVLAVATGIEEHNNYAVDFIEATGWIRKNLPGAHVSGGVSNLSFSFRGNNYIREAMHAVFLYHAIQQGMDMGIVNPGTSVLYSDIPADTLEKIEDVVLNRRPDAAERLIELAEA
  soluble on expression in E. coli: not soluble

## MADKPARSKQIETEMTLEQVKEQLTELGKKRGVLTYEEIAERMNGFEIESDQMDEYYEYLGEQGIDLVGDNDEGPNNHQITKTEEEFDLNDLSVPPGVKINDPVRMYLKEIGRVDLLSAEEEIRLATRIEEGDEEAKRRLAEANLRLVVSIAKRYVGRGMLFLDLIQEGNMGLIKAVEKFDYRKGFKFSTYATWWIRQAITRAIADQARTIRIPVHMVETINKLIRVQRQLLQDLGREPSPEEIGEEMDLAPEKVREILKIAQEPVSLETPIGEEDDSHLGDFIEDQEATSPADHAAYELLKEQLEDVLDTLTDREENVLRLRFGLDDGRTRTLEEVGKVFGVTRERIRQIEAKALRKLRHPSRSKRLKDFLE
  soluble on expression in E. coli: not soluble

## MAHHHHHHMQEIAAAEPPFACTPALVLIISEPKHAQTLLRAANLHLPLDQTEGGHLKRLRPRRCVTRVPLTEPQSLPPATPPSSLELLLALQPLERCGAAHTASVFTSAASSSCDAIGGTGANSGAAGSGHAALEHRLLWPLTRAEASLCAEQVLTLLSSDLASASRVVPFRAFVEAASAVTAENSAACGTRQQAIGICVRNDDTEGYTSTSSSPRVGDDTAAASDAAAAPCGSLAFQIMSVPATAPRSDPAEWASANRVWPLAVPRPHAPTLPSAAWTAEVCGNMVKHVFPLCRGLHRVCKARDQHVRASRLSLERGVEEFSKAASSPQISGAEEEAVVGAKEPSGLLDIVAVVIDPSTGRVVATSSGCTSMRVDNPVATAPYCGIVAETPCSERTVSWKRQRAVAPQQPRLILEHPVMYALKQLAAVQQQQEHHRQTMQPSPGTAGAFTAPGSLEPGPSSAVTAEDARHANSTRPYLANGLDLYVTHEPCVMCAMALVHSRIQRVFFLFRNAVHGGLGGRYHLHSMASLNHHFSAYECTEAAELYTTL
  soluble on expression in E. coli: not soluble

## MAMTGSTPCSSMSNHTKERVTMTKVTLENFYSNLIAQHEEREMRQKKLEKVMEEEGLKDEEKRLRRSAHARKETEFLRLKRTRLGLEDFESLKVIGRGAFGEVRLVQKKDTGHVYAMKILRKADMLEKEQVGHIRAERDILVEADSLWVVKMFYSFQDKLNLYLIMEFLPGGDMMTLLMKKDTLTEEETQFYIAETVLAIDSIHQLGFIHRDIKPDNLLLDSKGHVKLSDFGLCTGLKKAHRTEFYRNLNHSLPSDFTFQNMNSKRKAETWKRNRRQLAFSTVGTPDYIAPEVFMQTGYNKLCDWWSLGVIMYEMLIGYPPFCSETPQETYKKVMNWKETLTFPPEVPISEKAKDLILRFCCEWEHRIGAPGVEEIKSNSFFEGVDWEHIRERPAAISIEIKSIDDTSNFDEFPESDILKPTVATSNHPETDYKNKDWVFINYTYKRFEGLTARGAIPSYMKAAK
  soluble on expression in E. coli: not soluble

## MGLLTKVATSRQFSTTRCVAKKLNKYSYIITEPKGQGASQAMLYATGFKKEDFKKPQVGVGSCWWSGNPCNMHLLDLNNRCSQSIEKAGLKAMQFNTIGVSDGISMGTKGMRYSLQSREIIADSFETIMMAQHYDANIAIPSCDKNMPGVMMAMGRHNRPSIMVYGGTILPGHPTCGSSKISKNIDIVSAFQSYGEYISKQFTEEEREDVVEHACPGPGSCGGMYTANTMASAAEVLGLTIPNSSSFPAVSKEKLAECDNIGEYIKKTMELGILPRDILTKEAFENAITYVVATGGSTNAVLHLVAVAHSAGVKLSPDDFQRISDTTPLIGDFKPSGKYVMADLINVGGTQSVIKYLYENNMLHGNTMTVTGDTLAERAKKAPSLPEGQEIIKPLSHPIKANGHLQILYGSLAPGGAVGKITGKEGTYFKGRARVFEEEGAFIEALERGEIKKGEKTVVVIRYEGPRGAPGMPEMLKPSSALMGYGLGKDVALLTDGRFSGGSHGFLIGHIVPEAAEGGPIGLVRDGDEIIIDADNNKIDLLVSDKEMAQRKQSWVAPPPRYTRGTLSKYAKLVSNASNGCVLDA
  soluble on expression in E. coli: not soluble

## MGSDKIHHHHHHMRSDEVKKGIDRVAHRALLKALGVTDDEMDKPFIGVANAYNTIVPGHMTLDKLTQAVKEGVYAAGGVPFEFGIIGICDGIAMGHEGMCFSLPSRELVADTIEAMVEAHRFDGLVVVASCDKIIPGMLMAMLRLNIPAIAVTGGPMPYERVGGEKVSIKDAFEAAGMYKAGKLDDAGLKLYEDYCAPYCGSCQGLYTANSMQILTETLGLSLPYCSTSPCPSSRKLRIAKQSGKRVVELVMQNIKPLDFVNERSFENAITMDMLVGGSTNTVLHLPAIAKEAGIRLSLDLFDEISRRTPHIVSIDPASKEMVVDLDESGGVPMLIKKARKYFHDEMTVSGKTLYEIAEMAVLRGRDIIASPDNPLHKEGGIAILKGNLAENGAVIKAAAVSEDMMRFEGTAKVYDSEKEALNAILDGKVEEGDVVVIRYMGPKGAPGMPEMLLPTAAISGLGLQKVALITDGRFSGATRGPCIGHVSPEAAVGGNIALVEDGDKISIDIPARKLEVKLSDEELAERRAKWKPKEKELKGYLAKYAKLVRGAEEGAALL
  soluble on expression in E. coli: not soluble

## MLPWQRQVPTSIFPQSNEQVFRMMLAQQHLQLQNFLQQRKMALLAMNPEIPMITDLKKAKFDFTHMADSIESEQKIKEESVSPKMSPTLTTAAVRPFVPYDQPWFMIPGRGRTTGRAARPKKEFICKYCDRHFTKSYNLLIHERTHTDERPYSCDVCGKAFRRQDHLRDHKYIHQKDRPFKCEICGKGFCQSRTLLVHRATHDPNRHSIGAPVVPIKSETPLPELDPRVTLILQNLTDSFNSTSMTSPQISPDR
  soluble on expression in E. coli: not soluble

## MNNKSQGTVKFFNEQKGFGFITPENGGKDVFVHISKLNGETLAEGQQVTFETQEGRKGPEAINIEVL
  soluble on expression in E. coli: not soluble

## MNNRLEECGMLPAYIKIHDAIKKDIDLGIWPIGSRLPSERHLAEHFTVSRMTLRQAITLLVEEGILERRIGSGTYVASHRVQEKMRGTTSFTEIIRSQGRQPSSKLLSYQKQLASDTEVKELNLDKTDLVIRMERIRYADSVPLVYEIASIPEKFIKTVKRADITEHFFHSLIANGYEIGKSKQTIYAKLASERVASYLEVAKGHAILALTQVSYFTDGKPFEYVRSQYIGDRFEFYLENN
  soluble on expression in E. coli: not soluble

## MNRRIQLVEEELDRAQERLATALQKLEEAEKAADESERGMKVIESRAQKDEEKMEIQEIQLKEAKHIAEDADRKYEEVARKLVIIESDLERAEERAELSEGKCAELEEELKTVTNNLKSLEDKVEELLSKNYHLENEVARLKKLVGE
  soluble on expression in E. coli: soluble

## MPEYRSKTSTHGRNMAGARALWRATGVMETDFGKPIIAVANSFTQFVPGHVHLHNMGQLVAREIEKAGAIAKEFNTIAIDDGIAMGHSGMLYSLPSRDLIADSIEYMVNAHCADALVCISNCDKITPGMLIAAMRLNIPTIFVSGGPMEAGKVIGVANIQPERRLDLIDAMIESADDNVSNRQVEEVEQNACPTCGSCSGMFTANSMNCLTEALGLSLPGNGSYLATHAGRKELFLEAGRMIVEITKRYYEQNDETVLPRSIATKKAFENAMTMDIAMGGSTNTILHLLAVANEAGVDFKMADIDRLSRVVPCICKTAPNNHDYYMEDVHRAGGIFAILKELDKAGKLHTDVHTIHAPTLKDAIEQWDVTNPENTRAIERFKAAPGGVRTTQAFSQNRMWKTLDLDREKGCIRDVAHAYSQDGGLAVLFGNIAERGCVVKTAGVDESILKFTGRARVFESQEDAVEGILGNQIVAGDIVIIRYEGPKGGPGMQEMLYPTSYLKSKGLGKACALLTDGRFSGGTSGLSIGHASPEAAEGGAIGLVHEGDTVEIDIPNRSIHLAISDEELAARRAEMEARGSKAWKPKNRDRYVSAALRAYGAMATSADKGAVRDVAQIER
  soluble on expression in E. coli: not soluble

## MPLLLCPNCQVGMREVERRGVLIDVCPQCGGVWLDKGELEKLLAEAEEVERRYEEELEGFYRKEGKPYKRKKGFMKLFDLFD
  soluble on expression in E. coli: soluble

## MRILSLRFENINSLKGSWKIDFSEAPFDNNGLFAITGPTGAGKTTILDAICLALYHQTPRLTVSKKQNQLMTRHTSHCMAEVEFEVRGQGYRAFWSQKRARNKLDGNLLEPVAELAKLDGTIVSDKLKMVRSDISELTGLNFSRFTKSMMLSQGEFAAFLTSQPNDRAQLLEQLTGTEIYGDISKQVFDNHRSASEALKLLQAQSQGVSLLDDEQVKALEQQLTEITEQEKTV
  soluble on expression in E. coli: not soluble

## MSKRDYYEVLGVERGATEADLKKAYRRLAMKYHPDRNPGDKESEDKFKEANEAYEVLSDASKRAAFDQYGHAGVDPSMGGGGAGFGGANFSDIFGDVFSDFFGGGGRGGGRGGAQRGSDLRYTLELNLEEAVRGTTVSIRVPTLVNCQPCDGSGAKKGSTPSTCPTCGGIGQVRMQQGFFSVQQTCPRCHGQGKIITDPCTSCHGEGRVEEYKTLSVKVPAGVDTGDRIRLSGEGEAGTHGGPTGDLYVVISVREHEIFQRDGKHLYCEVPISYTDAALGGELEVPTLDGRVKLKIPEGTQTGKQFRLRGKGVAPVRGGGAGDLLCRVAVETPVNLSRRQRELLEELRDSLEGDSSHSPKASGWFDGVKRFFGDLLEHHHHHH
  soluble on expression in E. coli: soluble

## MSLAQTPMPQFVSKDGKHALMVDGAPFLILGAQVNNSSNYPGIMDKVWPAMQVLGPNTVQVPIAWEQVEPEEGRFDFSFVDTLLNQAREHKVRLVLLWFATWKNNGPQYAPHWVKTDNQRFPRVVTREGKSIGSLSPHAQATLDADRKAFVAFMQHLKKVDPQHTVIMIQPENEAGTYGSVRDFSPMAQKLFDGQVPDELIKRMNKQPGTWAQVFGADADEIFHAWSIGRYIDQIAQAGKAEYPLPMYVNAALRGPFNPGQPGQYASGGPTDNVLDVWKAAGPHIDLLAPDIYMPEYRMYTTVLERYARPDNALFVAETGNRPEYARYLYPTLGHNGIGWSAFGIDYTRYSNYPLGAKHVNEETLAPFALGFQAVSMGMRPFAKAASEGKLHGTAEEPGQAVQELKLNDRWSATITYGVPQFWFKGEPPGNPEPIGAALIAELSPDEFLVTGYHARVTLHPASDATANMIYDRVEEGVYEGNDWKFQRNWNGDQTDYGVNFSSVPQLLKIKLATYKEGHHHHHH
  soluble on expression in E. coli: soluble
